Earlier results as cited in US11660375B2, “Product and method for the treatment of bioprosthetic tissues” (Epygon, priority 2017, dated 2023).

Settings: Glutaraldehyde-crosslinked cusps

CCO [80% Ethanol, Ethanol]
extraction of cholesterol and phospholipids: almost all
